Consider 2 molecules from US20100143449A1, “ANALGESIC COMPOSITION OF TOPICALLY APPLIED NONSTEROIDAL ANTIINFLAMMATORY DRUGS AND OPIOIDS” (priority 2007, published 2010).

Structures are written as SMILES.

The test concerns Male Crl:CD-1 (ICR) BR mice. Briefly: Radiant heat tail-flick assay after topical drug application to the tail. The format is in vivo. To be noted: for ED 50 value, propylene glycol and lauric acid: topical, tail immersed 2 min, tested immediately afterward, vehicle propylene glycol and lauric acid (10:1). The procedure: All in vivo studies were carried out in accordance with the Declaration of Helsinki and with the Guide for Care and Use of Laboratory Animals, as adopted and promulgated by the Estonian Põllumajandusministeerium. Male Crl:CD-1® (ICR) BR mice (20-25 g) were purchased from Charles River Laboratories (Germany) and were housed in a 12:12-h light-dark cycle temperature-controlled room with food and water freely available. Drugs were obtained from Sigma (St. Louis, Mo., USA). […] Briefly, the distal portion of the tail (2-3 cm) was immersed in a propylene glycol/dH2O (10:1 ratio) alone or propylene glycol and lauric acid combination (10:1) solution containing the indicated drugs for the stated time, usually 2 min.). Analgesia was defined quantitatively as tail-flick latency for an individual animal that was twice its baseline latency or greater using tail flick apparatus (Ugo Basile, Italy). […] ED50 values were determined with GraphPad Software.

With `CCN(CC)CC(=O)Nc1c(C)cccc1C` [Lidocaine, lidocaine], the “ED 50 value, propylene glycol and lauric acid” value came out at 0.35 mmol.

Consider `CN1CC[C@]23c4c5ccc(O)c4O[C@H]2[C@@H](O)C=C[C@H]3[C@H]1C5` [Morphine, morphine], for which the “dose response shift to left of ED50 on addition of lauric acid to propylene glycol” value is recorded as 19 fold; the “ED 50 value, propylene glycol and lauric acid” value was 0.4 mmol.
